The target in test [1] is CD30-Fc recombinant protein (UniProt P28908). Nature of the test: plate-based binding assay (Meso Scale electrochemiluminescence); CD30-Fc coated on the wells; serum-free supernatants of HEK cells transfected with Iso1 with or without Iso2-FLAG; detection by Iso1-specific anti-CD30L or anti-FLAG; only the target purified.
The target is the same in test [2]. Nature of the test: pull-down; lysates of HEK cells transfected with 0, 625 or 2500 ng Iso1 plasmid with or without 2500 ng Iso2-FLAG plasmid, incubated 1 h with 5 ug CD30-Fc, then protein A/G beads; 8 washes in lysis buffer (1% Triton, 20 mM Tris pH 7.4, 100 mM NaCl); Western blot with pan-anti-CD30L and anti-FLAG; only the target purified.

Protein sequences, listed by entry. Tags and fused reporters are not part of them. Residues count along the entry.
UniProt P28908, residues 19-385: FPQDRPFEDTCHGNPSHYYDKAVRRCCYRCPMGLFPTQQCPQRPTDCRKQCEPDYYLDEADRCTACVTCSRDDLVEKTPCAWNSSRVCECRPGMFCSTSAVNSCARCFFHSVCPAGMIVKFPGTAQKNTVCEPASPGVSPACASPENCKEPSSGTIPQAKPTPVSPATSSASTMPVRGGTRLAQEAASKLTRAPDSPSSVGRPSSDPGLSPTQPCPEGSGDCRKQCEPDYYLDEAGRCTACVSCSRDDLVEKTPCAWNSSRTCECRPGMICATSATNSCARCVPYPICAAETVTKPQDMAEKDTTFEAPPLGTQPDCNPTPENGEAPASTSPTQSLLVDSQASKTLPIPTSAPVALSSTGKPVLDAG

Results are given in words; binding and its absence hold for the method and conditions named. For some assays here: Binding seen in cells or lysates may run through a third protein. Some entries that bind do so weakly or less than the wild type. Where a sequence is shown, tags or fusion partners need not be part of it.

This note sets out measurements from publication PMC10969620.

B1: untagged CD30 ligand isoform 1 (ligand, UniProt P32971 1-234)
chain: MDPGLQQALNGMAPPGDTAMHVPAGSVASHLGTTSRSYFYLTTATLALCLVFTVATIMVLVVQRTDSIPNSPDNVPLKGGNCSEDLLCILKRAPFKKSWAYLQVAKHLNKTKLSWNKDGILHGVRYQDGNLVIQFPGLYFIICQLQFLVQCPNNSVDLKLELLINKHIKKQALVTVCESGMQTKHVYQNLSQFLLDYLQVNTTISVNVDTFQYIDTSTFPLENVLSIFLYSNSD
With B1, the binding entry in test [1] and in test [2] was “binds” throughout.
